The source of these data is paper PMC11046792.

These are yes or no findings as the source states them, for the method shown. In cells and extracts the contact can be indirect. Binding can be weak; no strength is given. Sequences can lack the tags named with a protein.

The test addresses FLAG-ZNRF1 (pcDNA3.1-FLAG-ZNRF1, non-transmembrane region fragment). In words: co-IP; HEK293 cells transfected with tagged NCEH1 and ZNRF1 plasmids (1 µg, 6 h, then 48 h); interactions examined by immunoblotting. On the technique in general: A western blot detects proteins with antibodies after separation by electrophoresis.

B1: HA-NCEH1 (pcDNA3.1-HA-NCEH1) (enzyme, UniProt Q8BLF1 1-408)
chain: MRSSCVLLAALLALAAYYVYIPLPSAVSDPWKLMLLDATFRGAQQVSNLIHSLGLNHHLIALNFIITSFGKQSARSSPKVKVTDTDFDGVEVRVFEGSPKPEEPLRRSVIYIHGGGWALASAKISYYDQLCTTMAEELNAVIVSIEYRLVPQVYFPEQIHDVIRATKYFLQPEVLDKYKVDPGRVGISGDSAGGNLAAALGQQFTYVASLKNKLKLQALVYPVLQALDFNTPSYQQSMNTPILPRHVMVRYWLDYFKGNYDFVEAMIVNNHTSLDVERAAALRARLDWTSLLPSSIKKNYKPIMQTTGNARIVQEIPQLLDAAASPLIAEQEVLEALPKTYILTCEHDVLRDDGIMYAKRLESAGVNVTLDHFEDGFHGCMIFTSWPTNFSVGIRTRNSYIKWLDQNL
Take B1: the binding entry is recorded as “binds”.
